# The other results are listed elsewhere or left out. Results with a measured potency or affinity are listed apart. Entries without a call are filed as inconclusive in the source.
# Columns and labels:
# [1] = Polyglutamine toxicity reduction dose response, whole organism Drosophila SCA1 model (AID 1595); details: at 1 µM, stronger effect = higher value
# PubChem AID 1597 = details: Drosophila SCA1 polyglutamine model, at 1 µM, stronger effect = higher value
Compound,suppression of toxicity [1],suppression of toxicity (PubChem AID 1597)
Cc1c(N(C)CS(=O)(=O)O)c(=O)n(-c2ccccc2)n1C,0,2.86
NC(=NCCCCCCN=C(N)/N=C(\N)Nc1ccc(Cl)cc1)/N=C(\N)Nc1ccc(Cl)cc1,0,2.85
c1ccc2c(CC3=NCCN3)cccc2c1,1.43,3.57
Nc1ccc(S(=O)(=O)Nc2ccccn2)cc1,8.57,13.6
CCCCCCCCNC(C)C(O)c1ccc(SC(C)C)cc1 (stereo not drawn),4.29,5.71
Cc1cc(/C=C/c2ccc3cc(N(C)C)ccc3[n+]2C)c(C)n1-c1ccccc1,4.29,5.71
CN=C(N)NCCCC(N)C(=O)O (stereo not drawn),0,0.715
CC(C)(C)NCC(O)c1ccc(O)c(CO)c1 (stereo not drawn),0,0.715
CC(=O)N=c1sc(S(N)(=O)=O)nn1C,1.43,2.86
CC(CN1c2ccccc2Sc2ccccc21)N(C)C (stereo not drawn),7.14,7.14
NS(=O)(=O)c1cc2c(cc1Cl)NC(CSCc1ccccc1)=NS2(=O)=O,5.71,3.58
CC(C[N+](C)(C)C)OC(N)=O (stereo not drawn),1.43,11.4
CC1(C)S[C@@H]2C(N3C(=O)[C@@H](c4ccccc4)NC3(C)C)C(=O)N2[C@H]1C(=O)O (stereo partly drawn),7.14,12.9
CO[C@H]1C[C@H](O[C@H]2[C@H](C)[C@@H](OC3O[C@H](C)C[C@H](N(C)C)[C@H]3O)[C@@H](C)C[C@]3(CO3)C(=O)[C@H](C)[C@@H](O)[C@@H](C)[C@@H](C)OC(=O)[C@@H]2C)O[C@@H](C)[C@@H]1O (stereo partly drawn),0,3.58
Nc1nc(=S)c2[nH]cnc2[nH]1,4.29,1.43
Oc1ccc(Cl)cc1Cc1cc(Cl)ccc1O,1.43,4.29
O=C1N=C(O)CN1/N=C/c1ccc(-c2ccc([N+](=O)[O-])cc2)o1,7.14,12.9
CSCCC(NC=O)C(=O)NC(C)C(=O)O (stereo not drawn),4.29,15
CSCCC(N)C(=O)NC(CC(C)C)C(=O)NC(Cc1ccccc1)C(=O)O (stereo not drawn),1.43,5
CC(=O)NC1SCCC1=O (stereo not drawn),2.86,2.86
O=C1C=CC(=C(c2ccc(O)cc2)c2ccc(O)cc2)C=C1,0,5.71
CO/N=C(/C(=O)N[C@@H]1C(=O)N2C(C(=O)O)=C(COC(C)=O)CS[C@H]12)c1csc(N)n1,0,8.57
COC(=O)C1[C@H]2C[C@H]3c4[nH]c5ccccc5c4CCN3C[C@@H]2CC[C@@H]1O (stereo partly drawn),1.43,4.29

Compound,suppression of toxicity [1],suppression of toxicity (PubChem AID 1597)
CCN(CC)CCOc1ccc2c(c1)C(=O)c1cc(OCCN(CC)CC)ccc1-2,1.43,10.7
O=c1c(-c2ccc(O)cc2)coc2cc(O)ccc12,0,1.43
NC1(C(=O)O)CCCC1,1.43,31.4
CCCCC1C(=O)N(c2ccccc2)N(c2ccccc2)C1=O,5.71,2.15
COc1c2occc2cc2ccc(=O)oc12,0,4.29
C=C(CC)C(=O)c1ccc(OCC(=O)O)c(Cl)c1Cl,12.9,17.1
C#C[C@]1(O)CCC2C3CCC4=C(CCC(=O)C4)C3CC[C@@]21C (stereo partly drawn),0,7.14
O=C1CN(/N=C/c2ccc([N+](=O)[O-])o2)C(=O)N1,4.29,4.29
CN1CCN(CCCN2c3ccccc3Sc3ccc(C(F)(F)F)cc32)CC1,0,7.14
Cc1cccc(C)c1OCC(C)N (stereo not drawn),0,0.715
CN(C)CCC=C1c2ccccc2CCc2ccccc21,4.29,8.57
O=C(O)c1ccccc1O,11.4,10
COC(=O)C(C)C[N+](C)(C)C (stereo not drawn),2.86,2.15
c1ccc2c(c1)CCCC2C1=NCCN1 (stereo not drawn),1.43,3.58
O=C1c2c(O)ccc(O)c2C(=O)c2c(NCCNCCO)ccc(NCCNCCO)c21,0,1.43
CCc1nc(N)nc(N)c1-c1ccc(Cl)cc1,18.6,21.4
CC(=O)[C@H]1CCC2C3C[C@H](C)C4=CC(=O)CC[C@]4(C)C3[C@@H](O)C[C@@]21C (stereo partly drawn),2.88,3.58
CCC(C)C(N)C1=NC(C(=O)NC(CC(C)C)C(=O)NC(CCC(=O)O)C(=O)NC(C(=O)NCCCCC2NC(=O)C(CC(N)=O)NC(=O)C(CC(=O)O)NC(=O)C(Cc3cnc[nH]3)NC(=O)C(Cc3ccccc3)NC(=O)C(C(C)CC)NC(=O)C(CCCN)NC2=O)C(C)CC)CS1 (stereo not drawn),0,3.58
N[C@@H]1CONC1=O,4.29,6.42
Cc1cccc(N(C)C(=S)Oc2ccc3ccccc3c2)c1,4.29,5
O=C(O)c1ccccc1C(=O)Nc1ccc(S(=O)(=O)Nc2nccs2)cc1,0,0
CC(C)=CCC/C(C)=C/CO,2.85,4.29
Cn1c(=O)c2c(ncn2CCO)n(C)c1=O,2.88,5.04

# Whole records, looked up by structure. Order of values: suppression of toxicity [1] | suppression of toxicity (PubChem AID 1597)
# COc1c2occc2cc2ccc(=O)oc12 in the list: 0 | 4.29
# O=C(O)c1ccccc1O in the list: 11.4 | 10
# CCC(C)C(N)C1=NC(C(=O)NC(CC(C)C)C(=O)NC(CCC(=O)O)C(=O)NC(C(=O)NCCCCC2NC(=O)C(CC(N)=O)NC(=O)C(CC(=O)O)NC(=O)C(Cc3cnc[nH]3)NC(=O)C(Cc3ccccc3)NC(=O)C(C(C)CC)NC(=O)C(CCCN)NC2=O)C(C)CC)CS1 (stereo not drawn) in the list: 0 | 3.58
# COC(=O)C(C)C[N+](C)(C)C (stereo not drawn) in the list: 2.86 | 2.15

# (listing goes on)

Compound,suppression of toxicity [1],suppression of toxicity (PubChem AID 1597)
O=C(COc1ccc(Cl)cc1)N1CCN(Cc2ccc3c(c2)OCO3)CC1,1.43,7.14
CC(C)(C)NC[C@@H](O)COc1nsnc1N1CCOCC1,5.71,8.57
CC(=O)N[C@@H](CC(=O)O)C(=O)N[C@@H](CCC(=O)O)C(=O)O,1.43,3.58
CN(C)CCC(c1ccc(Cl)cc1)c1ccccn1 (stereo not drawn),0,1.43
Clc1cccc(Cl)c1NC1=NCCN1,2.86,5
CC(C)COCC(CN(Cc1ccccc1)c1ccccc1)N1CCCC1 (stereo not drawn),5.71,12.1
NC(=O)N/N=C/c1ccc([N+](=O)[O-])o1,2.85,5.71
c1ccc(CN(CC2=NCCN2)c2ccccc2)cc1,1.43,1.43
CC(=O)N[C@@H](CC(C)C)C(=O)O,2.85,12.9
C[N+]12CCC(CC1)C(OC(=O)C(O)(c1ccccc1)c1ccccc1)C2 (stereo not drawn),1.43,5
NCC1OC(OC2C(N)CC(N)C(OC3OC(CO)C(O)C(N)C3O)C2O)C(N)C(O)C1O (stereo not drawn),0,0.715
CC1(C)S[C@@H]2[C@H](NC(=O)Cc3ccccc3)C(=O)N2[C@H]1C(=O)O,2.85,5.71
CCOc1ccc(NC(C)=O)cc1,0,1.43
C=CCc1ccccc1OCC(O)CNC(C)C (stereo not drawn),2.85,2.86
COC(=O)C1=C(C)NC(C)=C(C(=O)OCCN(C)Cc2ccccc2)C1c1cccc([N+](=O)[O-])c1 (stereo not drawn),2.86,2.15
C#C[C@]1(OC(C)=O)CCC2C3CCC4=CC(=O)CC[C@@H]4C3CC[C@@]21C (stereo partly drawn),5.71,5
C[C@H]1c2cccc(O)c2C(O)=C2C(=O)[C@]3(O)C(O)=C(C(N)=O)C(=O)[C@@H](N(C)C)[C@@H]3[C@@H](O)[C@@H]21,1.43,12.1
c1coc(CNc2ncnc3nc[nH]c23)c1,1.43,3.57
O=C(O)P(=O)(O)O,0,1.43
CN1C2CC[C@H]1CC(OC(=O)C(O)c1ccccc1)C2 (stereo partly drawn),4.29,7.14
O=C1NC(=O)C(c2ccccc2)(c2ccccc2)N1,8.57,0
CC(C)C[C@@H](NC(=O)OCC1c2ccccc2-c2ccccc21)C(=O)O,0,0.715
NC[C@@H]1O[C@H](O[C@@H]2[C@@H](CO)OC(O[C@@H]3[C@@H](O)[C@H](N)C[C@H](N)[C@H]3OC3O[C@H](CN)[C@@H](O)[C@H](O)[C@H]3N)[C@@H]2O)[C@H](N)[C@@H](O)[C@@H]1O (stereo partly drawn),4.29,10

Compound,suppression of toxicity [1],suppression of toxicity (PubChem AID 1597)
C=C1C(=O)OC2C1CCC1(C)CCC=C(C)C21 (stereo not drawn),2.85,2.86
CCN(CC)Cc1ccc(Nc2ccnc3cc(Cl)ccc23)cc1O,5.71,1.43
CC(=O)N[C@@H](Cc1c[nH]c2ccccc12)C(=O)O,1.43,3.58
CC(=O)OCC(=O)[C@@]1(O)CCC2C3CCC4=CC(=O)CC[C@]4(C)C3[C@@H](O)C[C@@]21C (stereo partly drawn),2.85,3.58
CO[C@]12C[C@@H](COC(=O)c3cncc(Br)c3)CN(C)[C@@H]1Cc1cn(C)c3cccc2c13,1.43,4.29
COc1cc2ccc(=O)oc2cc1O,0,0
CCC[C@@H]1C[C@@H](C(=O)N[C@H]([C@H]2O[C@H](SC)[C@H](O)[C@@H](O)[C@H]2O)[C@H](C)O)N(C)C1,2.86,5
O=C1NS(=O)(=O)c2ccccc21,7.14,5
c1ccc(CC2=NCCN2)cc1,2.86,1.43
CC[C@H]1CN2CCc3cc(OC)c(OC)cc3C2C[C@@H]1CC1NCCc2cc(OC)c(OC)cc21 (stereo partly drawn),0,0.715
Nc1nccs1,5.71,10
CC(=O)Oc1ccc2c(c1)CCC1C2CC[C@@]2(C)C1CC[C@@H]2OC(C)=O (stereo partly drawn),4.29,4.29
CCC[C@@H]1C[C@@H](C(=O)NC(C(C)Cl)C2O[C@H](SC)[C@H](O)[C@@H](O)[C@H]2O)N(C)C1 (stereo partly drawn),1.43,2.15
NC12CC3CC(CC(C3)C1)C2,0,6.42
CN(C)CCOC(=O)C(c1ccccc1)C1(O)CCCC1 (stereo not drawn),0,5
CC(=O)CCC1C2=NC(=C\C3=NC(=C(/C)C4=NC(C)(C5[N-]/C(=C\2C)C(C)(CCC(=O)NCC(C)OP(=O)(O)O[C@@H]2[C@@H](CO)OC(n6cnc7cc(C)c(C)cc76)[C@@H]2O)C5CC(N)=O)C(C)(CC(N)=O)C4CCC(N)=O)/C(C)(CC(N)=O)C3CCC(N)=O)/C1(C)C.[CH2-][C@H]1OC(n2cnc3c(N)ncnc32)[C@H](O)[C@@H]1O.[Co+2] (stereo partly drawn),0,0
CCCCNC(=O)NS(=O)(=O)c1ccc(C)cc1,2.85,4.29
NC[C@@H]1O[C@H](O[C@@H]2[C@@H](CO)OC(O[C@@H]3[C@@H](O)[C@H](N)C[C@H](N)[C@H]3OC3O[C@H](CO)[C@@H](O)[C@H](O)[C@H]3N)[C@@H]2O)[C@H](N)[C@@H](O)[C@@H]1O (stereo partly drawn),0,3.58
Nc1ccc(S(=O)(=O)NC(=O)c2ccccc2)cc1,5.71,9.29
CC1=C(C(=O)O)N2C(=O)[C@@H](NC(=O)[C@H](N)C3=CCC=CC3)[C@H]2SC1,0,2.15

# From PubChem BioAssay
